This is one part of the list.

Amino acid sequences for entries named in this document (tags omitted). A change or cut given only in a name is not applied to a line headed by its entry.
UniProt Q92484: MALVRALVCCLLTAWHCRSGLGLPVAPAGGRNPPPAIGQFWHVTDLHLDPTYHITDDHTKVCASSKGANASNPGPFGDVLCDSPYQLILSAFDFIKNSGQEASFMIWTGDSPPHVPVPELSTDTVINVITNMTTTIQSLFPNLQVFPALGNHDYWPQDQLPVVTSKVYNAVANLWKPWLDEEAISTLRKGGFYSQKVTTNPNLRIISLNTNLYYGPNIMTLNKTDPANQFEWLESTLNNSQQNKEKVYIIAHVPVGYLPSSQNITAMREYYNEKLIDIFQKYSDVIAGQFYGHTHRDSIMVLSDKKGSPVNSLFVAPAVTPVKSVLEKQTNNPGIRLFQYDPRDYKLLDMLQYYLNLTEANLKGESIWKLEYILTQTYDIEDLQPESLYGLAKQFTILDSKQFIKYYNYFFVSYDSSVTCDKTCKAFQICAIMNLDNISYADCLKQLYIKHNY
UniProt Q8NDV3: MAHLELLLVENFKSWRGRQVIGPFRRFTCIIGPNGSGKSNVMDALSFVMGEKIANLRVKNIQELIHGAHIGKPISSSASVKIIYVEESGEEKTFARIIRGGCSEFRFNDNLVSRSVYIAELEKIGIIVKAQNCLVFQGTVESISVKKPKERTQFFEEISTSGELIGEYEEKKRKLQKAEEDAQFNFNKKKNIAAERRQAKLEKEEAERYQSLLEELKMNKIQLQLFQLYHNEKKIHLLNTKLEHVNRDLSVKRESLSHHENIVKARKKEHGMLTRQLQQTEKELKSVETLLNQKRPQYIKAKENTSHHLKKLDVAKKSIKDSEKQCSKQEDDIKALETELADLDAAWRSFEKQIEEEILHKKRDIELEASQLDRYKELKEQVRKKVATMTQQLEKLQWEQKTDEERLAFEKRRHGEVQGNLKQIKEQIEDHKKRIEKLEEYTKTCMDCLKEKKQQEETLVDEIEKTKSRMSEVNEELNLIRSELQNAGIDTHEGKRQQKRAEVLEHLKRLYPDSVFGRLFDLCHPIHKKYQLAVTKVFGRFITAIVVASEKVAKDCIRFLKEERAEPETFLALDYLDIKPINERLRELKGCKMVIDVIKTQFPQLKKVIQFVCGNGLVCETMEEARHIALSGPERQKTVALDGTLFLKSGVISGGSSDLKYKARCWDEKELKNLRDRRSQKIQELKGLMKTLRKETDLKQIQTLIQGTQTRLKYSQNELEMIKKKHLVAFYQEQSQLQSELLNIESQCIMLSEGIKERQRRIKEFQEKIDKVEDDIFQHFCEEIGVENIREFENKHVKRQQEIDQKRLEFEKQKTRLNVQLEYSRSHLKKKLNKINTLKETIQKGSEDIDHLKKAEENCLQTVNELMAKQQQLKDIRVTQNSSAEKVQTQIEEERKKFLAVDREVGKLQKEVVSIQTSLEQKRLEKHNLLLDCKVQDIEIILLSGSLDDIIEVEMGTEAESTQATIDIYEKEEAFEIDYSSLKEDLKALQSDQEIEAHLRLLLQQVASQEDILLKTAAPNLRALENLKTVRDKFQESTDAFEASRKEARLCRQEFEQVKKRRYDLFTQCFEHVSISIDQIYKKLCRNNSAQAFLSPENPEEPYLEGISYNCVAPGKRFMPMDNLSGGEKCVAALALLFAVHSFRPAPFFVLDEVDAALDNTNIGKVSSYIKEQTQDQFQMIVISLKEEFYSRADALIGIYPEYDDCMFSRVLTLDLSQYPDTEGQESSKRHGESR
UniProt P35716: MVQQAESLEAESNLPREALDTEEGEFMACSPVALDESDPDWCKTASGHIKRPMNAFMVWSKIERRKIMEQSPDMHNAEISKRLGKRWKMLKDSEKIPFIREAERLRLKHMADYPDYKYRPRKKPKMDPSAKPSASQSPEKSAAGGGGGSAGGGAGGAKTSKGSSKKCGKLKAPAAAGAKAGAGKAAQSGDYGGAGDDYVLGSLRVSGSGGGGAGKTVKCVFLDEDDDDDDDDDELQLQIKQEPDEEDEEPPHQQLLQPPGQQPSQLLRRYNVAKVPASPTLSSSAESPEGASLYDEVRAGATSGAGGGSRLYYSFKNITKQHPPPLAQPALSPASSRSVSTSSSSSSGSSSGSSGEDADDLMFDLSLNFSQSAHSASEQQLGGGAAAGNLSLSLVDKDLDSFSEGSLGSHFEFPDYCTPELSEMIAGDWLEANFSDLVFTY
UniProt O75971: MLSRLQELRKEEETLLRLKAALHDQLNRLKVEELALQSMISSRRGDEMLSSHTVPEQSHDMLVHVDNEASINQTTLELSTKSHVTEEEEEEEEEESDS
UniProt O15370: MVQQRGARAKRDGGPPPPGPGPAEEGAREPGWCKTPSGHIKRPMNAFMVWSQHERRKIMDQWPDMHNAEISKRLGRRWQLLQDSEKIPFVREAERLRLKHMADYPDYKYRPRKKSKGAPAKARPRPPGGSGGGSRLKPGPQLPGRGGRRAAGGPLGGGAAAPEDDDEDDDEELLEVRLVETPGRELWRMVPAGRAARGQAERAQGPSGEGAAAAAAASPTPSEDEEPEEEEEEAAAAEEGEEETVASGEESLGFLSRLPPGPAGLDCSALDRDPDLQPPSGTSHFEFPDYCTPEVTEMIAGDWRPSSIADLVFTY
UniProt Q07617: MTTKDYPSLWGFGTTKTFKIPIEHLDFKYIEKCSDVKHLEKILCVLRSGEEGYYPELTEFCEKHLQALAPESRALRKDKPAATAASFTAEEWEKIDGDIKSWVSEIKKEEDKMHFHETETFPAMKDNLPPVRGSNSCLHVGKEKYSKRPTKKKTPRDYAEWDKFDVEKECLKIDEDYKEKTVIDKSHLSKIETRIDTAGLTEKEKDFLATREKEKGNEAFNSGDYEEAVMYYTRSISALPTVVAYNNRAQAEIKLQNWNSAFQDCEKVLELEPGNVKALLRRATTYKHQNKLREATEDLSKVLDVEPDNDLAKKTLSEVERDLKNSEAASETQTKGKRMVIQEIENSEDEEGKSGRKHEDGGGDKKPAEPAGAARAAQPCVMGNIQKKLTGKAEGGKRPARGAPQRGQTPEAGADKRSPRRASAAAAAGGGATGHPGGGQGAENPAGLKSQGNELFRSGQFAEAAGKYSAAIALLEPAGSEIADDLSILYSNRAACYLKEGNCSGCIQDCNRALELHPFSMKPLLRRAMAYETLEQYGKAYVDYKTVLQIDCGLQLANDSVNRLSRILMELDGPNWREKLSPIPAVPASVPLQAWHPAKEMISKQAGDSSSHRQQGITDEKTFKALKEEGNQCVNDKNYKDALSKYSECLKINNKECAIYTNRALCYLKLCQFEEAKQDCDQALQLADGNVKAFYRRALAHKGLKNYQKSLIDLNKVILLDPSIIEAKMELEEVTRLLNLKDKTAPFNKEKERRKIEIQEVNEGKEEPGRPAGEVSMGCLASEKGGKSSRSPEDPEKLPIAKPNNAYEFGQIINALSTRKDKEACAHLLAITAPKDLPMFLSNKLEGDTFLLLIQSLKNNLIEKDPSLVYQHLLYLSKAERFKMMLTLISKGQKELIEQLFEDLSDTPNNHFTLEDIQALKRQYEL
UniProt P08294: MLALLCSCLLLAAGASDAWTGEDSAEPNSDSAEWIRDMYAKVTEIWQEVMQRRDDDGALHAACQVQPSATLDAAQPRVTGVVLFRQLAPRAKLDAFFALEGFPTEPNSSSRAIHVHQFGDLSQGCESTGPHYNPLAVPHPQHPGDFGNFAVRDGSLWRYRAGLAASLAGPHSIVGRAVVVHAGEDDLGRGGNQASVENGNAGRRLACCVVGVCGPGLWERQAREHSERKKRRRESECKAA
UniProt O60749: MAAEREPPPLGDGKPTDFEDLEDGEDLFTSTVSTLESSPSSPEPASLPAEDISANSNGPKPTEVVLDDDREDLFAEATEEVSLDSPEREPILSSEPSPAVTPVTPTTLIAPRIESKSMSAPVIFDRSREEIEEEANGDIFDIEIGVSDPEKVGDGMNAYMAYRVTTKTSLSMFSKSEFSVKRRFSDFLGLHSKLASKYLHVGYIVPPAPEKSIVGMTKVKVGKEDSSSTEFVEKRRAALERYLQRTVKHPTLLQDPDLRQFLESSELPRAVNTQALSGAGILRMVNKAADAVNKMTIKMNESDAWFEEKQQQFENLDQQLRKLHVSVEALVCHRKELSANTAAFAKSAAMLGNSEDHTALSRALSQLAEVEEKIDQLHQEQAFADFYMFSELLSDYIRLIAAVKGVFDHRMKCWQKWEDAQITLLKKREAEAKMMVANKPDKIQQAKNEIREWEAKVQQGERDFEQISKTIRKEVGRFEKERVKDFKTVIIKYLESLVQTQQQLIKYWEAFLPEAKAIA
UniProt Q6STE5, whole entry, looked up: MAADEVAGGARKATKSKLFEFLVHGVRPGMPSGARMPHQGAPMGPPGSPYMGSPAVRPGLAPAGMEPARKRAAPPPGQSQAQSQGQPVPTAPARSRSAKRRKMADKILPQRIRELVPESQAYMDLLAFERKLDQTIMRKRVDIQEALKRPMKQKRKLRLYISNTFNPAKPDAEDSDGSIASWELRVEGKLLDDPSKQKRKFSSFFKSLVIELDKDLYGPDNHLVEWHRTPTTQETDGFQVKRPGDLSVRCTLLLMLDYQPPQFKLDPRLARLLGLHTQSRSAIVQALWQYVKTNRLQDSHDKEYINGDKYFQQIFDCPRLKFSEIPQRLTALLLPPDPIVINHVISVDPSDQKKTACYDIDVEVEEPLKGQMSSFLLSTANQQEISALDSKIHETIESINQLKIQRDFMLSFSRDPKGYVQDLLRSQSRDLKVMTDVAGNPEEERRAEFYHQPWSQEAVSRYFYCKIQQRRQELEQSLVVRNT
UniProt Q8TAQ2, whole entry, looked up: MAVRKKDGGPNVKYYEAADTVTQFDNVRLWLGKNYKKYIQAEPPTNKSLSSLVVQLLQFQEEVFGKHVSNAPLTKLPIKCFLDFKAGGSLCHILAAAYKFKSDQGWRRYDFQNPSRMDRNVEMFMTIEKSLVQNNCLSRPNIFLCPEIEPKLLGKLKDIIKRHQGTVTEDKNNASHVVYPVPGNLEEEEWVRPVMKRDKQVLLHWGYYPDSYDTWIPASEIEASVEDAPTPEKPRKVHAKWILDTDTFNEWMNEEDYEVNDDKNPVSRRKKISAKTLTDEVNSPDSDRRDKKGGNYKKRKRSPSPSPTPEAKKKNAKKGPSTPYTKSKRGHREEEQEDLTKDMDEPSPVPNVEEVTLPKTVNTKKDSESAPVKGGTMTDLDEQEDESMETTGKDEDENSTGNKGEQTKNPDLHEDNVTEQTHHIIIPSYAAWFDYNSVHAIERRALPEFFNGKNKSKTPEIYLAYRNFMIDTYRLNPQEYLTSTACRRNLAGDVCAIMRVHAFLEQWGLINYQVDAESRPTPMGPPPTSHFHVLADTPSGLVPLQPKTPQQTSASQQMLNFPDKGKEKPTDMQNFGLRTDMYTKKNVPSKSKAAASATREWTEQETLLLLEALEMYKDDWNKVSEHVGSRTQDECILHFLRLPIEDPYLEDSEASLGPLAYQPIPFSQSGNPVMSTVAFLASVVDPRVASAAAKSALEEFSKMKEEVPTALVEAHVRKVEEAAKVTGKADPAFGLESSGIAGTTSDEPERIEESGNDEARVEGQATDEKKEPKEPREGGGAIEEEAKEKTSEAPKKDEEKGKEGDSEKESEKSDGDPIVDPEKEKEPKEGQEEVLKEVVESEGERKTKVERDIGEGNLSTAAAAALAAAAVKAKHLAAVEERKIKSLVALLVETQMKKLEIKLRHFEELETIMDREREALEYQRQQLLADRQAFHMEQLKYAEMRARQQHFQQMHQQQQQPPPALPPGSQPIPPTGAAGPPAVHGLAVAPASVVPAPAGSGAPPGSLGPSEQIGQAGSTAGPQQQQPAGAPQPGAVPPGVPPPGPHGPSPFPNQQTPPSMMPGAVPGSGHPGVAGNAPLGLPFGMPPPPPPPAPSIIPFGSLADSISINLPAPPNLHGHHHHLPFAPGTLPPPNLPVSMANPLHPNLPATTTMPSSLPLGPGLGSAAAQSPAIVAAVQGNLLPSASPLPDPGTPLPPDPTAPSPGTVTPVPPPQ
UniProt Q6X4U4: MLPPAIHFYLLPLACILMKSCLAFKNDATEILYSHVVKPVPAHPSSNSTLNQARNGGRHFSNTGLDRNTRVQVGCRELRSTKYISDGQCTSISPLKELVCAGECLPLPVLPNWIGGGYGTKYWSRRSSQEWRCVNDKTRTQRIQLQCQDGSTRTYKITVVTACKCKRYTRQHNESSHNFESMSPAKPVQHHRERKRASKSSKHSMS
UniProt Q16560: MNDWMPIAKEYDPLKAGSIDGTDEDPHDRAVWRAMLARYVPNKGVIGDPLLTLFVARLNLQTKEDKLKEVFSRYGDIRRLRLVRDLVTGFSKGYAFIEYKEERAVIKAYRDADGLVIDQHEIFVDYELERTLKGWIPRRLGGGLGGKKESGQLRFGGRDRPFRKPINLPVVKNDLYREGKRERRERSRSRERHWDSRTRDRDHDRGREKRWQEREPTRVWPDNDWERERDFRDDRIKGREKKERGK
UniProt Q9Y5X0: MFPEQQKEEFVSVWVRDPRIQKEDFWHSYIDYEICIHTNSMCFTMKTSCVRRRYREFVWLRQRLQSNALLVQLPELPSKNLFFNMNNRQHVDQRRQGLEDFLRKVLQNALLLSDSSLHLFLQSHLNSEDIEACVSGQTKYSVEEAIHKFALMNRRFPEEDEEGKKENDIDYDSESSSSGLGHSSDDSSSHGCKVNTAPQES

Compound in the first experiment: CNC(=O)c1ccc(Nc2ncc(C(F)(F)F)c(NCc3nccnc3N(C)S(C)(=O)=O)n2)cc1 [defactinib]
As to the kind of experiment: log2 fold change, soluble protein after heating vs DMSO (PISA); higher = thermal stabilisation; K562 lysate, 10 uM; active = over 0.2 and 3.5 SD of the protein, either way, in both replicates (recomputed). Put shortly:
(§1)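 Thermal stability, expressed as log-two fold change relative to solvent controls, is given from duplicates. Crude K562 extract in PBS pH 7.4 with 1 mM MgCl2, at 1 mg/mL protein, was treated with 10 μM compound for 30 min and heated in aliquots for 3 min across 48°C-58°C. After pooling, adjustment to 0.5% NP-40 at 4°C and centrifugation at 21,000xg for 90 min, supernatant protein was measured by TMTpro 16plex LC-MS/MS with channel sums equalised.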
Regarding SMPDL3A (UniProt Q92484), the log2 fold change is inactive: -0.068.

Take SMC1B isoform 3 (UniProt Q8NDV3): the log2 fold change is inactive: 0.147.

Regarding SNX14 (UniProt Q9Y5W7), the log2 fold change was inactive: -0.011.

In the case of SOX11 (UniProt P35716), the log2 fold change is inactive: 0.007.

Take SMYD3 (UniProt Q9H7B4): the log2 fold change is inactive: 0.036.

As to SNAPC5 (UniProt O75971), the log2 fold change was inactive: 0.08.

Turning to SOX12 (UniProt O15370), the log2 fold change was inactive: -0.081.

Take SPAG1 (UniProt Q07617): the log2 fold change was inactive: -0.014.

On to SOD3 (UniProt P08294), for which the log2 fold change was inactive: -0.039.

Take SMIM11A (UniProt P58511): the log2 fold change is inactive: 0.224.

As to SNX2 isoform 2 (UniProt O60749), the log2 fold change is inactive: -0.128.

For the target SNRPD2 (UniProt K7EJB5), the log2 fold change is inactive: -0.074.

SNAPC4 (UniProt Q5SXM2): the log2 fold change is inactive: -0.065.

Compound in a further experiment: CNc1nc(-c2ccc3c(N)n[nH]c3c2)cc(N2C[C@@H](C(=O)NC3CCCCC3)CC[C@H]2C)n1
The description is as above. Put shortly: as §1
In the case of SNX13 (UniProt Q9Y5W8), the log2 fold change is inactive: 0.122.

With SMC1B isoform 3 (UniProt Q8NDV3), the log2 fold change was inactive: 0.028.

Regarding SNX14 (UniProt Q9Y5W7), the log2 fold change was inactive: 0.464.

Regarding SMOX isoform 6 (UniProt Q9NWM0), the log2 fold change was inactive: 0.048.

On to SMYD3 (UniProt Q9H7B4), for which the log2 fold change is inactive: 0.028.

As for SNAPC3 (UniProt Q92966), the log2 fold change was inactive: 0.263.

SMARCD3 (UniProt Q6STE5): the log2 fold change is inactive: 0.122.

Turning to SMARCC2 isoform 3 (UniProt Q8TAQ2), the log2 fold change was inactive: -0.019.

Consider SOSTDC1 isoform 2 (UniProt Q6X4U4), for which the log2 fold change is inactive: 0.271.

For SOX12 (UniProt O15370), the log2 fold change was inactive: -0.19.

In the case of SNX33 (UniProt Q8WV41), the log2 fold change was inactive: -0.046.

Turning to SNX25 (UniProt Q9H3E2), the log2 fold change is inactive: 0.086.

On to SP2 (UniProt Q02086), for which the log2 fold change is inactive: 0.126.

On to SMPD1 (UniProt P17405), for which the log2 fold change was inactive: -0.01.

Regarding SNX2 isoform 2 (UniProt O60749), the log2 fold change was inactive: 0.512.

For the target SNRPD2 (UniProt K7EJB5), the log2 fold change was inactive: 0.054.

SNRNP35 isoform 2 (UniProt Q16560): the log2 fold change is inactive: 0.067.

Turning to SNX10 (UniProt Q9Y5X0), the log2 fold change was inactive: -0.061.
